Taken from: PubChem BioAssay AID743121 (NCATS, 2013)

Assay: 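Partners whose loss is lethal together with topoisomerase I blockade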 (primary screen)
Cells: MDA-MB-231 cells, a human breast cancer line
Reagents: single siRNA against human genes, 20 nM siRNA (0.8 pmol per well)
Duration: 120 h (drug added 48 h after transfection, read 72 h later)
Conditions: camptothecin 20 nM (about EC30) for 72 h; vehicle 0.1% DMSO in parallel plates
Measurement: 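CellTiter-Glo ATP signal, scaled to control siRNA as percent viability; sensitisation given as log2 of untreated divided by camptothecin-treated viability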
Reading the numbers: log2 vehicle/camptothecin viability: higher = stronger sensitisation to camptothecin; viability with camptothecin: higher = more viable cells
Units: viability with camptothecin in % of control
Active means: 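Active genes have an RSA gene-level p-value below 0.001, computed from the ratios of their separate siRNAs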
In all, the deposit lists about 26,000 reagents; below is an unselected part. In the full data, 167 (0.63%) were called active. 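Calls are per gene from RSA p-values that are not deposited; an individual active-marked siRNA can sensitise only weakly.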 Reagents against one gene are numbered here. Not all columns of the deposit are shown.

The first 3 records, to show the layout:
PI4K2B #1 | log2 vehicle/camptothecin viability: -0.207; viability with camptothecin: 66.5; Outcome: inactive
PI4K2B #2 | log2 vehicle/camptothecin viability: -0.558; viability with camptothecin: 82.7; Outcome: inactive
PI4K2B #3 | log2 vehicle/camptothecin viability: 0.268; viability with camptothecin: 42.2; Outcome: inactive

The list itself, from the first entry:
PI4K2B #1 | log2 vehicle/camptothecin viability: -0.207; viability with camptothecin: 66.5; Outcome: inactive
PI4K2B #2 | log2 vehicle/camptothecin viability: -0.558; viability with camptothecin: 82.7; Outcome: inactive
PI4K2B #3 | log2 vehicle/camptothecin viability: 0.268; viability with camptothecin: 42.2; Outcome: inactive
PI4K2B #4 | log2 vehicle/camptothecin viability: 0.281; viability with camptothecin: 55.6; Outcome: inactive
MAP7 #1 | log2 vehicle/camptothecin viability: -0.039; viability with camptothecin: 77.4; Outcome: inactive
MAP7 #2 | log2 vehicle/camptothecin viability: -0.29; viability with camptothecin: 77.3; Outcome: inactive
MAP7 #3 | log2 vehicle/camptothecin viability: -0.207; viability with camptothecin: 92.5; Outcome: inactive
MAP7 #4 | log2 vehicle/camptothecin viability: -0.496; viability with camptothecin: 102; Outcome: inactive
MOGS #1 | log2 vehicle/camptothecin viability: -0.569; viability with camptothecin: 40.4; Outcome: inactive
MOGS #2 | log2 vehicle/camptothecin viability: 0.224; viability with camptothecin: 85.6; Outcome: inactive
MOGS #3 | log2 vehicle/camptothecin viability: 0.0843; viability with camptothecin: 73.9; Outcome: inactive
MOGS #4 | log2 vehicle/camptothecin viability: 0.25; viability with camptothecin: 63; Outcome: inactive
PKM #1 | log2 vehicle/camptothecin viability: -0.179; viability with camptothecin: 68; Outcome: inactive
PKM #2 | log2 vehicle/camptothecin viability: -0.25; viability with camptothecin: 65; Outcome: inactive
PKM #3 | log2 vehicle/camptothecin viability: -0.159; viability with camptothecin: 45.2; Outcome: inactive
PKM #4 | log2 vehicle/camptothecin viability: -0.292; viability with camptothecin: 66.6; Outcome: inactive
NEUROD1 #1 | log2 vehicle/camptothecin viability: -0.277; viability with camptothecin: 102; Outcome: inactive
NEUROD1 #2 | log2 vehicle/camptothecin viability: -0.053; viability with camptothecin: 96.9; Outcome: inactive
NEUROD1 #3 | log2 vehicle/camptothecin viability: -0.00401; viability with camptothecin: 107; Outcome: inactive
NEUROD1 #4 | log2 vehicle/camptothecin viability: -0.445; viability with camptothecin: 76.3; Outcome: inactive
G3BP1 #1 | log2 vehicle/camptothecin viability: -0.17; viability with camptothecin: 106; Outcome: inactive
G3BP1 #2 | log2 vehicle/camptothecin viability: -0.0124; viability with camptothecin: 60.1; Outcome: inactive
G3BP1 #3 | log2 vehicle/camptothecin viability: -0.0721; viability with camptothecin: 95.5; Outcome: inactive
NME5 #1 | log2 vehicle/camptothecin viability: -0.104; viability with camptothecin: 115; Outcome: inactive
NME5 #2 | log2 vehicle/camptothecin viability: -0.109; viability with camptothecin: 115; Outcome: inactive
NME5 #3 | log2 vehicle/camptothecin viability: 0.103; viability with camptothecin: 18.4; Outcome: inactive
NME5 #4 | log2 vehicle/camptothecin viability: -0.253; viability with camptothecin: 76.2; Outcome: inactive
